Patent US20160257711A1 (BOARD OF TRUSTEES OF THE UNIVERSITY OF ILLINOIS, published 2016)
No constants are given. Whether binding was seen depends on the method and setting. Some results given as binding are weak or reduced against the parent protein; the word gives no strength.

Sequences of proteins named here, by UniProt entry; tags and fusion partners are left off. A change or cut given only in a name is not applied to a line headed by its entry.
UniProt Q14344: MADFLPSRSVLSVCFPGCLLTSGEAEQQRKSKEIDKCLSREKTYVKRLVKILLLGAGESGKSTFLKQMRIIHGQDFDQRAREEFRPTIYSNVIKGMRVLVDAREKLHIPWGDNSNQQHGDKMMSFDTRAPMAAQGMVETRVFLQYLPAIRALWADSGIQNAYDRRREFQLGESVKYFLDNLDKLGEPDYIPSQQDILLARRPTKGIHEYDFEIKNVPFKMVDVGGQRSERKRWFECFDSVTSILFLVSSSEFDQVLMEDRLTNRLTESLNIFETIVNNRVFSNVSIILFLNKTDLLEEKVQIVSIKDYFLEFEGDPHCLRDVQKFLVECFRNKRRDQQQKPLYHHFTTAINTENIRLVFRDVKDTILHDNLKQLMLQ
UniProt P05107: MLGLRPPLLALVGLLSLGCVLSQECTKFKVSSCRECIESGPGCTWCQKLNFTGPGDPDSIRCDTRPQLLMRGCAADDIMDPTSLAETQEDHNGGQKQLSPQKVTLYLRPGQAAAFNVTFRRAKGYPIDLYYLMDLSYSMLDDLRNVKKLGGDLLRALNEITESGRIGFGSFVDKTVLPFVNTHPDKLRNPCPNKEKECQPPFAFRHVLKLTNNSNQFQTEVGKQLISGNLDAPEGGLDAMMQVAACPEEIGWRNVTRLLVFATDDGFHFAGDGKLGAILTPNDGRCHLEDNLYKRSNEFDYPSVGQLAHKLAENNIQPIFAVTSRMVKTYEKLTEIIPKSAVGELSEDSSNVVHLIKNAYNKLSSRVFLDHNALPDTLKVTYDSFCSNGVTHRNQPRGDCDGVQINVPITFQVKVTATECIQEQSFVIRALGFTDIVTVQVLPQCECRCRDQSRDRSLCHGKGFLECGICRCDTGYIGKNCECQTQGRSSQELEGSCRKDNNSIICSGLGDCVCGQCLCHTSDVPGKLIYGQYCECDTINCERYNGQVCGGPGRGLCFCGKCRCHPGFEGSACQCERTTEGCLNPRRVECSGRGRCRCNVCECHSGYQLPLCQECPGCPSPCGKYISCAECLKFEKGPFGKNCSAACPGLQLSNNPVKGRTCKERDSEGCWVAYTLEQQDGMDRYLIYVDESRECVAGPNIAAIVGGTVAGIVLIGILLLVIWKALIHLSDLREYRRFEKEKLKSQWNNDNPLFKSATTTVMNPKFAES

Target: Gα13 (preparation not stated; sentence on β1, β2 and β3 subunits) (Homo sapiens (Human)) (UniProt Q14344)
Assay: assay and constructs not described

Substance: integrin β2 subunit (construct not described) (from UniProt P05107 23-769) (receptor)
- binding: binds
